No constants are given. Whether binding was seen depends on the method and setting. Binding seen in cells or lysates may run through a third protein. A result given as binding can be weak or reduced; the word gives no strength.

By UniProt entry, the sequences of proteins in these tests, tags left out. Where a name states a change or a piece, a line headed by the entry shows the natural chain unless it says otherwise.
UniProt Q8N3Y1: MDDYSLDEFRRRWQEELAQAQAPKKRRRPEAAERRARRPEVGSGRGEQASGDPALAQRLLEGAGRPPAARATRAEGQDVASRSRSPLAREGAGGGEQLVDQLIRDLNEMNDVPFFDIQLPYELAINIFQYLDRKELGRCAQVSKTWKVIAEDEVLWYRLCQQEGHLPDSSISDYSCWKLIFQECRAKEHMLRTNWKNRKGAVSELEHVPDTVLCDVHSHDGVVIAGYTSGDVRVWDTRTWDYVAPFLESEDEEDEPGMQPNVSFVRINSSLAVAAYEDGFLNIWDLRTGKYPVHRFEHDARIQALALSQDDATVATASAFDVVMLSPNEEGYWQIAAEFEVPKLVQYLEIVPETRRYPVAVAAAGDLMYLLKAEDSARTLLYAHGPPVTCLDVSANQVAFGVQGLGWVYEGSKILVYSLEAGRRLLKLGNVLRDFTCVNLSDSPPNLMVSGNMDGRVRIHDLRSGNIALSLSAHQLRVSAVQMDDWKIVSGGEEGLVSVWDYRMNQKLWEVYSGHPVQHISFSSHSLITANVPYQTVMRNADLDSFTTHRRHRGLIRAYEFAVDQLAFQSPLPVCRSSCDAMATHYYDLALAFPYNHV
UniProt Q14999: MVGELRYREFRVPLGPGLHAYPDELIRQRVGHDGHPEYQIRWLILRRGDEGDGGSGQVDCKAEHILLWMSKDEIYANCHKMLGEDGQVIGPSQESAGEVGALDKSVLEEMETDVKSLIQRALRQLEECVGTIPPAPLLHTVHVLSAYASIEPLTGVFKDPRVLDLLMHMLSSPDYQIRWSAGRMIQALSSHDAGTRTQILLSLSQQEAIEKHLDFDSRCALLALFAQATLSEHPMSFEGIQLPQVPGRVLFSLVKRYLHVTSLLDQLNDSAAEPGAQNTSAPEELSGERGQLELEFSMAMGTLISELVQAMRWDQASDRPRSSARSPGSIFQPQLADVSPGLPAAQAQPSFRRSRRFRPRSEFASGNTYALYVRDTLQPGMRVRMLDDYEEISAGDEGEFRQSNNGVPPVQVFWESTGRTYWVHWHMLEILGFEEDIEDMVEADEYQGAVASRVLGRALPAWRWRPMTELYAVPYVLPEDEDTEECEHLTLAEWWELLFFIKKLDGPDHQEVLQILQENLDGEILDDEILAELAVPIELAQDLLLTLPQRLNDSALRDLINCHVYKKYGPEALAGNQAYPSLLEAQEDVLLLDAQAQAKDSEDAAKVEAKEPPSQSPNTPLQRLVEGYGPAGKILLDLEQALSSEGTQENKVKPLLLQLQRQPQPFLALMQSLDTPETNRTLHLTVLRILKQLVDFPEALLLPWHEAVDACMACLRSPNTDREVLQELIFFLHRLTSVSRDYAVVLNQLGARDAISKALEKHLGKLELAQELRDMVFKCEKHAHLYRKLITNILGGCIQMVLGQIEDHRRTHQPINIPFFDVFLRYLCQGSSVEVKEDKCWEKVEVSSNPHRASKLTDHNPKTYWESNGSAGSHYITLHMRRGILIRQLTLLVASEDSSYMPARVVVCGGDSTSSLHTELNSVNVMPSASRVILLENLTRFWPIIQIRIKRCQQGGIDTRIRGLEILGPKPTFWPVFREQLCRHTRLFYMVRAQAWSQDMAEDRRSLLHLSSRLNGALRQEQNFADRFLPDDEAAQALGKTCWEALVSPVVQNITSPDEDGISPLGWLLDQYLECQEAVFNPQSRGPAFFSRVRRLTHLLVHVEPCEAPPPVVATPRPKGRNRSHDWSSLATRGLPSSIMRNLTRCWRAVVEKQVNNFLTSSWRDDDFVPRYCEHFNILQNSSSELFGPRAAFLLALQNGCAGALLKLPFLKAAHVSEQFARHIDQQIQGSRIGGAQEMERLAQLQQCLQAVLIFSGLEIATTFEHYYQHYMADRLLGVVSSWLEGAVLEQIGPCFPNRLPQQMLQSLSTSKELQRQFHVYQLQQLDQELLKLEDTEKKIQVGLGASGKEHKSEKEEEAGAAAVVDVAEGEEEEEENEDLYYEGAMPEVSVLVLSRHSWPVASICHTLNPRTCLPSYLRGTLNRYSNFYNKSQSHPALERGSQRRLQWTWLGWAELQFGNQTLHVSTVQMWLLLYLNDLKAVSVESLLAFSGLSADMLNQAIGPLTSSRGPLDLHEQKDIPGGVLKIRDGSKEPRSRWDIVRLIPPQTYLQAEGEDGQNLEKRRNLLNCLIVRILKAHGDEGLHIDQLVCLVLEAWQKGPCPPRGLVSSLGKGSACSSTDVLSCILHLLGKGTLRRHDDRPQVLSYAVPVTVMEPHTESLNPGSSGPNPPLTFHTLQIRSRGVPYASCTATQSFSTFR
UniProt P63208: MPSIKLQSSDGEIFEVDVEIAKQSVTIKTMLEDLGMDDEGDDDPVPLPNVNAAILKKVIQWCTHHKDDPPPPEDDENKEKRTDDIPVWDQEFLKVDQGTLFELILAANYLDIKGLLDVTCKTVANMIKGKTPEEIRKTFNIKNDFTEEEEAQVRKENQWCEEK
UniProt P24385: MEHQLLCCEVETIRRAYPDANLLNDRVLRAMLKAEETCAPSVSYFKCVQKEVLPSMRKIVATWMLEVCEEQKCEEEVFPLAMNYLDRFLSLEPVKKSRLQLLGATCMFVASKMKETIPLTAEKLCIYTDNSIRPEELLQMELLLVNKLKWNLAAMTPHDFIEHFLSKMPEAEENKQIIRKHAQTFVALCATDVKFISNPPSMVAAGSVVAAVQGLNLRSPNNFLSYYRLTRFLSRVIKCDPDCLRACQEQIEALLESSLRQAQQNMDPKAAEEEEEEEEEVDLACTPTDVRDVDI

The target in the test is Flag-tagged ΔF FBXW8 (F-box deletion mutant) (human) (UniProt Q8N3Y1). Nature of the test: co-IP; T98G cells transfected with empty, Flag-tagged WT FBXW8 or ΔF FBXW8 plasmid; precipitated with Flag antibody; blotted for cyclin D1, SKP1, CUL1, CUL7, RBX1 and Flag.
Take “Cullin 7 (CUL7), endogenous (from UniProt Q14999 1-1698)”: the binding result is “binds weakly”.

On to “S-phase Kinase-associated Protein 1 (SKP1), endogenous (from UniProt P63208 1-163)”, for which the binding result is “binds weakly”.

On to “cyclin D1 (endogenous) (from UniProt P24385 1-295)”, for which the binding result is reported as “binds”.

The values above are taken from article PMC1762433.
